According to article PMC7862700:
The list shows a part of the results, in another mix than the full data. At the low end of the ranking, values are background and their order means little.

Chains of the proteins cited; added tags and fusions are not shown. Lines headed by an entry give the natural chain unless they say otherwise; changes in a name come on top.
UniProt O43186: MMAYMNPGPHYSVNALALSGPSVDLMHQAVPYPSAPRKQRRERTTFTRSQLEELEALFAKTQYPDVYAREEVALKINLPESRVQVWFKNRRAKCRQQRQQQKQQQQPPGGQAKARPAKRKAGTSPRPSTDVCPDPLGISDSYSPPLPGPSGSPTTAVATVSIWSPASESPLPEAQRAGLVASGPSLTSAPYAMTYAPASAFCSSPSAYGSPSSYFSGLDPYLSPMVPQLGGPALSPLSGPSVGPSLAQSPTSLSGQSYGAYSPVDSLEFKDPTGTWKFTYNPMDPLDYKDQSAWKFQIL

Molecular target: T1, FEV (UniProt Q99581)
T1 sequence: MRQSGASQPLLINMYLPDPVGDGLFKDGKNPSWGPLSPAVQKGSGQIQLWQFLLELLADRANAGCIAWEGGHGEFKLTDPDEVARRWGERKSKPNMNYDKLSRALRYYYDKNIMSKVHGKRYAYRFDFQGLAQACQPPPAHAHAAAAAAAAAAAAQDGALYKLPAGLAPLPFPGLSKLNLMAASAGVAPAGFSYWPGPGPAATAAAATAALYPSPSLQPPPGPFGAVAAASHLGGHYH
Experiment: DAPPL (digital affinity profiling via proximity ligation, sequencing)
Details: 10 mM Tris-HCl pH 7.5, 50 mM NaCl, 1 mM DTT, 4% glycerol, room temperature, 30 min; GST-TFs on glutathione beads, 16-mer random dsDNA library, 0.1% …; high values mean tight binding; double strand, one strand shown; scale: fold enrichment (6-mer frequency, TF over GST control)

Sequence | binding signal
AATTGG | 1.43
AAAGGT | 0.974
AATGGG | 1.25
CTTGTC | 1.23
AGAAAT | 1.12
TATTGG | 1.14
GTACTC | 1.11
GAAATG | 1.77
CCCTGG | 1.08
GAACAC | 1.08
TCTACG | 1.52
TCTCTA | 1.32
GATACT | 1.1
AAAACT | 1.16
ATACAA | 1.09
TTGCGT | 0.956
AACGTA | 0.987
CGTATG | 0.98
GCTAAT | 1.18
TAAGAT | 1.15

Sequence | binding signal
CGCTAC | 1.18
ATATAC | 1.11
GCGACT | 1.31
TGCTCA | 1.39
TTAACC | 1.29
GGCTCT | 1.35
CTACTC | 1.37
TCCGGA | 3.95
ATGAAA | 1.13
CTGCCT | 1.2
GTTCTA | 1.26
GATGCC | 1.41
ACTTCA | 1.38
CTTTTT | 1.35
GGAAGC | 1.74
TATCGA | 1.2
AAGAAA | 1.15
CTCAAT | 1.23
TATTCC | 1.61
CCATAA | 1.11

Molecular target: CRX (UniProt O43186)
Experiment: as above
Details: 10 mM Tris-HCl pH 7.5, 50 mM NaCl, 1 mM DTT, 4% glycerol, room temperature, 30 min; GST-TFs on glutathione beads, 16-mer random dsDNA library, 0.1% …; high values mean tight binding; double strand, one strand shown; scale: fold enrichment (6-mer frequency, TF over GST control)

Sequence | binding signal
AATTGG | 1.23
AAAGGT | 0.971
AATGGG | 0.952
CTTGTC | 0.981
AGAAAT | 1.35
TATTGG | 1.4
GTACTC | 0.876
GAAATG | 0.858
CCCTGG | 1.06
GAACAC | 0.863
TCTACG | 1.44
TCTCTA | 1.56
GATACT | 1.07
AAAACT | 1.16
ATACAA | 1.07
TTGCGT | 0.984
AACGTA | 0.985
CGTATG | 0.789
GCTAAT | 2.56
TAAGAT | 2.49

Sequence | binding signal
CGCTAC | 0.864
ATATAC | 1.08
GCGACT | 1.14
TGCTCA | 1.28
TTAACC | 2.67
GGCTCT | 1.27
CTACTC | 1.28
TCCGGA | 1.14
ATGAAA | 1.08
CTGCCT | 1.11
GTTCTA | 1.59
GATGCC | 0.915
ACTTCA | 1.17
CTTTTT | 1.25
GGAAGC | 0.607
TATCGA | 1.59
AAGAAA | 1.29
CTCAAT | 1.25
TATTCC | 1.77
CCATAA | 1.64
